# Melanoma cell counts after drug treatment

Drugs:
PF-04217903, 5 µM: OCCn1cc(-c2cnc3nnn(Cc4ccc5ncccc5c4)c3n2)cn1
NVP-BEZ235, 0.02 µM: Cn1c(=O)n(-c2ccc(C(C)(C)C#N)cc2)c2c3cc(-c4cnc5ccccc5c4)ccc3ncc21
FK866, 0.05 µM: O=C(/C=C/c1cccnc1)NCCCCC1CCN(C(=O)c2ccccc2)CC1
GW2580, 5 µM: COc1ccc(COc2ccc(Cc3cnc(N)nc3N)cc2OC)cc1
nutlin-3, 0.5 µM: COc1ccc(C2=N[C@@H](c3ccc(Cl)cc3)[C@@H](c3ccc(Cl)cc3)N2C(=O)N2CCNC(=O)C2)c(OC(C)C)c1
ENMD-2076, 0.2 µM: Cc1cc(Nc2cc(N3CCN(C)CC3)nc(/C=C/c3ccccc3)n2)n[nH]1
cisplatin, 8 µM: N.N.[Cl][Pt][Cl]
nilotinib, 1 µM: Cc1cn(-c2cc(NC(=O)c3ccc(C)c(Nc4nccc(-c5cccnc5)n4)c3)cc(C(F)(F)F)c2)cn1
decitabine, 0.5 µM: Nc1ncn([C@H]2C[C@H](O)[C@@H](CO)O2)c(=O)n1

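Human melanoma cells were exposed to a pair of drugs for 72 h in 1,536-well plates and read by automated microscopy after fixing and staining. The read-out is cell count (nuclei) in % of the DMSO control; lower values mean stronger growth inhibition or killing. Concentrations were fixed for each drug; these are the higher of two levels. No replicate spread is given; individual values may be noisy.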 This is part of the screen, not chosen by result. An entry leaves out what has no value listed here. A dash means that no value is listed here.

- nilotinib + GW2580 | WM451Lu: 105; COLO 792: 104; COLO 829: 111; COLO 800: 89.8; C32: 98.3
- nilotinib + PF-04217903 | WM451Lu: 120; WM3619: 97.1; COLO 792: 78.1; COLO 829: 133; COLO 800: 62.2; C32: 101
- PF-04217903 + NVP-BEZ235 | WM451Lu: 107; WM3619: 90.5; COLO 792: 53.3; COLO 829: 81.5; COLO 800: 108; C32: 108
- cisplatin + ENMD-2076 | WM451Lu: 119; WM3619: 76.8; COLO 792: 79.5; COLO 829: 110; COLO 800: 74.6; C32: 88.5
- GW2580 + NVP-BEZ235 | WM451Lu: 84.2; WM3619: 94.2; COLO 792: 72.1; COLO 829: 58.9; COLO 800: 62.2; C32: 103
- nutlin-3 + GW2580 | WM451Lu: 102; WM3619: 59.6; COLO 792: 121; COLO 829: 63.8; COLO 800: 120; C32: 69.1
- FK866 + GW2580 | WM451Lu: 90.6; WM3619: 79.5; COLO 792: 36.8; COLO 829: 67.7; COLO 800: 41.9; C32: 127
- nutlin-3 + ENMD-2076 | WM451Lu: 121; WM3619: 84.6; COLO 792: 64.5; COLO 829: 69.4; COLO 800: 40.8; C32: 93.2
- decitabine + ENMD-2076 | WM451Lu: 73.5; WM3619: 81.3; COLO 792: 57.4; COLO 829: 58.7; COLO 800: 71.7; C32: 95.2
- ENMD-2076 + GW2580 | WM451Lu: 79.3; COLO 792: 73.1; COLO 829: 88.4; COLO 800: 71.5; C32: 86.9
- cisplatin + GW2580 | WM451Lu: 93.5; WM3619: 153; COLO 792: 118; COLO 829: 101; COLO 800: 93.3; C32: 127
- ENMD-2076 + nilotinib | WM451Lu: 81.9; WM3619: 89.5; COLO 792: 85.1; COLO 829: 81.1; COLO 800: 69.4; C32: 81.8
- ENMD-2076 + NVP-BEZ235 | WM451Lu: 77.2; WM3619: 64.9; COLO 792: 40.4; COLO 829: 71.0; COLO 800: 45.3; C32: 85.2
- decitabine + nutlin-3 | WM451Lu: 88.9; WM3619: 84.0; COLO 792: 94.0; COLO 829: 56.9; COLO 800: 84.0; C32: 80.4
- NVP-BEZ235 + decitabine | WM451Lu: 59.3; WM3619: 56.8; COLO 792: 52.9; COLO 829: 57.4; COLO 800: 62.6; C32: 80.2
- PF-04217903 + GW2580 | WM451Lu: 106; WM3619: 112; COLO 792: 114; COLO 829: 106; COLO 800: 79.0; C32: 112
- NVP-BEZ235 + cisplatin | WM451Lu: 71.3; WM3619: 55.3; COLO 792: 56.1; COLO 829: 72.3; COLO 800: 87.8; C32: 93.6
- FK866 + decitabine | WM451Lu: 95.4; WM3619: 67.8; COLO 792: 20.0; COLO 829: 52.5; COLO 800: 10.3; C32: 93.4
- decitabine + GW2580 | WM451Lu: 78.3; WM3619: 83.4; COLO 792: 94.8; COLO 829: 63.3; COLO 800: 82.0; C32: 85.6
- decitabine + cisplatin | WM451Lu: 58.3; WM3619: 65.3; COLO 792: 69.5; COLO 829: 72.3; COLO 800: 82.5; C32: 89.4
- FK866 + cisplatin | WM451Lu: 96.9; WM3619: 94.3; COLO 792: 34.1; COLO 829: 49.8; COLO 800: 20.9; C32: 84.0
- nilotinib + decitabine | WM451Lu: 103; WM3619: 91.5; COLO 792: 96.1; COLO 829: 92.2; COLO 800: 110; C32: 96.7
- NVP-BEZ235 + FK866 | WM451Lu: 75.0; WM3619: 53.6; COLO 792: 42.8; COLO 829: 66.4; COLO 800: 32.6; C32: 102
- decitabine + PF-04217903 | WM451Lu: 77.3; WM3619: 65.1; COLO 792: 81.4; COLO 829: 82.2; COLO 800: 57.8; C32: 97.3
- FK866 + ENMD-2076 | WM451Lu: 74.0; WM3619: 60.0; COLO 792: 35.9; COLO 829: 57.4; COLO 800: 38.9; C32: 88.0
- NVP-BEZ235 + nutlin-3 | WM451Lu: 96.2; WM3619: 78.3; COLO 792: 49.9; COLO 829: 79.2; COLO 800: 75.6; C32: 88.0
- PF-04217903 + ENMD-2076 | WM451Lu: 102; WM3619: 98.4; COLO 792: 78.3; COLO 829: 77.3; COLO 800: 74.7; C32: 93.5
- PF-04217903 + FK866 | WM451Lu: 87.5; WM3619: 88.4; COLO 792: 44.4; COLO 829: 79.3; COLO 800: 34.3; C32: 108

The first 3 entries again:

Pair,WM451Lu,WM3619,COLO 792,COLO 829,COLO 800,C32
nilotinib + GW2580,105,-,104,111,89.8,98.3
nilotinib + PF-04217903,120,97.1,78.1,133,62.2,101
PF-04217903 + NVP-BEZ235,107,90.5,53.3,81.5,108,108

Values as published with doi:10.1371/journal.pone.0140310, rounded.